# In the supplement of paper PMC6411743:
# Chains of the proteins cited; added tags and fusions are not shown. Lines headed by an entry give the natural chain unless they say otherwise; changes in a name come on top.
# UniProt Q9GZR5: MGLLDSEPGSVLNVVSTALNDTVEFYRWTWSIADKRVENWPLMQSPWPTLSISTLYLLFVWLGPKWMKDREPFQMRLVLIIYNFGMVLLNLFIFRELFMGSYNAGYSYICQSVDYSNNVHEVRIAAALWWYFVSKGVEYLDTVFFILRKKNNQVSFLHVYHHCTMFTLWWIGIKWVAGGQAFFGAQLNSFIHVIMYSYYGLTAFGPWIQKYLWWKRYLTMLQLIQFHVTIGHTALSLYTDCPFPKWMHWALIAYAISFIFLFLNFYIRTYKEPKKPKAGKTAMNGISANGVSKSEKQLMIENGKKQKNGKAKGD
# UniProt Q9HC35: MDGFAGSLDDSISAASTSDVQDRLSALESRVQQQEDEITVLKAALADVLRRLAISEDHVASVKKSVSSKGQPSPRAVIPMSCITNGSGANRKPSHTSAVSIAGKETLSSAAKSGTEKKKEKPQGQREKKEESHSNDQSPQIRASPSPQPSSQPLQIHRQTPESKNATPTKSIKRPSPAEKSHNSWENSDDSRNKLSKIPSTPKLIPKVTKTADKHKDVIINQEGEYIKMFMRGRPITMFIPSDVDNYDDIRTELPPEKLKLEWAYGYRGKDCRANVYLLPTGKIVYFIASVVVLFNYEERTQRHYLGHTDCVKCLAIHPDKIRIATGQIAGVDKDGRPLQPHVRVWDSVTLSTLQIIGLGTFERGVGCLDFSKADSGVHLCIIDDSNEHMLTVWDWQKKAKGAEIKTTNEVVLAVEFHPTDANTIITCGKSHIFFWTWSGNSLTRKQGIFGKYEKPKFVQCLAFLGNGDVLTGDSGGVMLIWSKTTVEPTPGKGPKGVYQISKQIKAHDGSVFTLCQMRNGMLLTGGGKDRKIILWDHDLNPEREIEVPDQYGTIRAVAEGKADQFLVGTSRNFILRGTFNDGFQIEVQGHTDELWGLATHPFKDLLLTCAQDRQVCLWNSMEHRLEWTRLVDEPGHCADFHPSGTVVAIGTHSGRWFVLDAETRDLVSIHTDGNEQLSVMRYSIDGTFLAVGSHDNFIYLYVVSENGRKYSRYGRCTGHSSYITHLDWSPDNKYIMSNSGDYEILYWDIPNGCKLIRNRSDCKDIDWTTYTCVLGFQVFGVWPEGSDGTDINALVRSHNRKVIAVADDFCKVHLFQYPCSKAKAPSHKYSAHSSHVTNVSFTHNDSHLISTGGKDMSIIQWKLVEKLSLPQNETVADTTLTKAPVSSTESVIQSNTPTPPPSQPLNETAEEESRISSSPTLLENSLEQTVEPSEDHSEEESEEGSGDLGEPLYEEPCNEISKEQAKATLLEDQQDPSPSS
# UniProt Q9H832: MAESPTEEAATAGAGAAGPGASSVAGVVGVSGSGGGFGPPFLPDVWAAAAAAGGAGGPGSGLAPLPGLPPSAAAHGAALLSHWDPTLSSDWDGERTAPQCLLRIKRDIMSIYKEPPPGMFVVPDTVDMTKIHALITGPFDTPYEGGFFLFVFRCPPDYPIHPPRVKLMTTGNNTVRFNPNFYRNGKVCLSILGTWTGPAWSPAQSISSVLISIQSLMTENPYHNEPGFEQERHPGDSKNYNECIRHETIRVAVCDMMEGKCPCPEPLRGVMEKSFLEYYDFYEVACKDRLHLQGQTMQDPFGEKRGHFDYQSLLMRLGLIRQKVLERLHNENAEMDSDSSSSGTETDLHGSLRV
# UniProt Q9H444: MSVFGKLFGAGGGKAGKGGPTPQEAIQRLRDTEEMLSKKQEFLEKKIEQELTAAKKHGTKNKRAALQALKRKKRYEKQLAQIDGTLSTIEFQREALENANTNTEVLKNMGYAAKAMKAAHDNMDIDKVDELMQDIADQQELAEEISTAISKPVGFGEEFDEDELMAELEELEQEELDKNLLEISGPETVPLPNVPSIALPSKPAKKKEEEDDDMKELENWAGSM
# UniProt Q9H098: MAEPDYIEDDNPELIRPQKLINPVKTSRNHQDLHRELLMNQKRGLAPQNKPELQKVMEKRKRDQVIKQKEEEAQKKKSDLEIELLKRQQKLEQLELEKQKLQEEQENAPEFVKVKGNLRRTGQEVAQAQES
# UniProt Q9C0H2: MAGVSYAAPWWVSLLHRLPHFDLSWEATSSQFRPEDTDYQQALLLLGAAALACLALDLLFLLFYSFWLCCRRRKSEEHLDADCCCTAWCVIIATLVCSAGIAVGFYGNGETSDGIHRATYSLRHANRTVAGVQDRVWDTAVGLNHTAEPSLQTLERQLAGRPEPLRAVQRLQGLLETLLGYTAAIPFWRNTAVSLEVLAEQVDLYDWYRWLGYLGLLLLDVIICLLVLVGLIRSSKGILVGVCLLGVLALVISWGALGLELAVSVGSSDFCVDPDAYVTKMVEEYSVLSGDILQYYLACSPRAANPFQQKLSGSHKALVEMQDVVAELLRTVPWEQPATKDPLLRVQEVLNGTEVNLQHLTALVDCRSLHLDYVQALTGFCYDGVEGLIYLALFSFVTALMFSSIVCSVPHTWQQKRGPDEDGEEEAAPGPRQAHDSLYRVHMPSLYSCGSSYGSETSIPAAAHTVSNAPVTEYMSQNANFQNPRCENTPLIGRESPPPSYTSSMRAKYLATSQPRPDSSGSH
# UniProt Q9H4G4: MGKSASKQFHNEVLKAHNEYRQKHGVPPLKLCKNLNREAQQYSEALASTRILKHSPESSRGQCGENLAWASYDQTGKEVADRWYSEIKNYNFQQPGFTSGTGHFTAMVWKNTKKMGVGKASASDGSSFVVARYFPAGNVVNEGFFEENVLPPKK
# UniProt Q9H0F7: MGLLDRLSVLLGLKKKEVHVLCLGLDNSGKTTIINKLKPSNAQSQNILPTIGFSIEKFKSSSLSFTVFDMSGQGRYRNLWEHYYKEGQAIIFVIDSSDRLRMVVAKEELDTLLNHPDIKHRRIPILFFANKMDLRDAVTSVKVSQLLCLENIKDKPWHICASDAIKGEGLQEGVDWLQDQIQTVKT
# UniProt Q9HCM1: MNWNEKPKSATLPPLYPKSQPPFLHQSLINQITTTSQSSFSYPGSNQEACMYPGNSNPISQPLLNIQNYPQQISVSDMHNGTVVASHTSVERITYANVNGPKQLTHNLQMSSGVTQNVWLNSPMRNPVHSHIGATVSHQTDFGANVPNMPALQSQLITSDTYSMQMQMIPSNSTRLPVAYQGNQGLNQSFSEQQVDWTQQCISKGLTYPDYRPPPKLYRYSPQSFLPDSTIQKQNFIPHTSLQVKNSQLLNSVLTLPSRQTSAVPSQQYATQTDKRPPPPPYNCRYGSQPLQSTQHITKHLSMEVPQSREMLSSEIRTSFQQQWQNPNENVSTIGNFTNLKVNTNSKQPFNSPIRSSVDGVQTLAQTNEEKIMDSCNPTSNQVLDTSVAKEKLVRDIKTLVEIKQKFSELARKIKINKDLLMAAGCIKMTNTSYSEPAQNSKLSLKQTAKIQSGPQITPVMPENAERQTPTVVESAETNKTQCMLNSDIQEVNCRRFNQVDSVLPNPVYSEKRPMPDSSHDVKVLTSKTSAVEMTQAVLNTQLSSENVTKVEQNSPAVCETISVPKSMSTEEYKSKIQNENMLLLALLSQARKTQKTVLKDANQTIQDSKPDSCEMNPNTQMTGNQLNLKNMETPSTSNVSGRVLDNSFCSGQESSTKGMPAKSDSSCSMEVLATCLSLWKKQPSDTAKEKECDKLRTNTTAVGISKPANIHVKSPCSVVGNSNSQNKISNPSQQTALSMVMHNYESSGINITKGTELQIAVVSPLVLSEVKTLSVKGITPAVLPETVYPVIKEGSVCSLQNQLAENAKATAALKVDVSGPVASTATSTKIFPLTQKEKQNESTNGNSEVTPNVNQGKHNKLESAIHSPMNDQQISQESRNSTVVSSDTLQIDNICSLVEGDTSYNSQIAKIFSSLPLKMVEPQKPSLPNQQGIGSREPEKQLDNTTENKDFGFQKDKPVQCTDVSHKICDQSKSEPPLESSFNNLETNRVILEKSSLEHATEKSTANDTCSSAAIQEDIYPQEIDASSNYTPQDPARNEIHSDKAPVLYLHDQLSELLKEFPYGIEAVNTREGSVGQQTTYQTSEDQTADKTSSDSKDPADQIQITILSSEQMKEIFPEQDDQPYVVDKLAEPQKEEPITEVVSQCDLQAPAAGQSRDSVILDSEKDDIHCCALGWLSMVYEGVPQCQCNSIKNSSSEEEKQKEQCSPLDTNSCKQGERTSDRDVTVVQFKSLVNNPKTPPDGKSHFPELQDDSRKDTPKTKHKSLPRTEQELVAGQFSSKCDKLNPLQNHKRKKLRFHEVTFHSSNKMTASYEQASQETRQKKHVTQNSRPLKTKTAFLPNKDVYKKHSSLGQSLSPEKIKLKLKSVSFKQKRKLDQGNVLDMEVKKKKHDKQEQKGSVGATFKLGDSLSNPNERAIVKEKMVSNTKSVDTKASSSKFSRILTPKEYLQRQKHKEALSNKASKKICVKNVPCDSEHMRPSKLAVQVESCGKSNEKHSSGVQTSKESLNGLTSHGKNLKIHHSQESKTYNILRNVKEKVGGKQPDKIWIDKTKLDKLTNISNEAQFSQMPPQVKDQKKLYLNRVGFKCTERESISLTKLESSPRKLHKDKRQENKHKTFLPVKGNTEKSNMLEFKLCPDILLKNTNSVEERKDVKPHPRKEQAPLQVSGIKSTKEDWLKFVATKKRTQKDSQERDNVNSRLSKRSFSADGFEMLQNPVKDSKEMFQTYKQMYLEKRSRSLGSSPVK
# UniProt Q9H4X1: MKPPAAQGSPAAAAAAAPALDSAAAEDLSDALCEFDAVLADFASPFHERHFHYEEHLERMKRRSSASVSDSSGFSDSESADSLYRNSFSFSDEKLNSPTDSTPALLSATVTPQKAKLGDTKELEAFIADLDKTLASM
# UniProt Q9H0D6: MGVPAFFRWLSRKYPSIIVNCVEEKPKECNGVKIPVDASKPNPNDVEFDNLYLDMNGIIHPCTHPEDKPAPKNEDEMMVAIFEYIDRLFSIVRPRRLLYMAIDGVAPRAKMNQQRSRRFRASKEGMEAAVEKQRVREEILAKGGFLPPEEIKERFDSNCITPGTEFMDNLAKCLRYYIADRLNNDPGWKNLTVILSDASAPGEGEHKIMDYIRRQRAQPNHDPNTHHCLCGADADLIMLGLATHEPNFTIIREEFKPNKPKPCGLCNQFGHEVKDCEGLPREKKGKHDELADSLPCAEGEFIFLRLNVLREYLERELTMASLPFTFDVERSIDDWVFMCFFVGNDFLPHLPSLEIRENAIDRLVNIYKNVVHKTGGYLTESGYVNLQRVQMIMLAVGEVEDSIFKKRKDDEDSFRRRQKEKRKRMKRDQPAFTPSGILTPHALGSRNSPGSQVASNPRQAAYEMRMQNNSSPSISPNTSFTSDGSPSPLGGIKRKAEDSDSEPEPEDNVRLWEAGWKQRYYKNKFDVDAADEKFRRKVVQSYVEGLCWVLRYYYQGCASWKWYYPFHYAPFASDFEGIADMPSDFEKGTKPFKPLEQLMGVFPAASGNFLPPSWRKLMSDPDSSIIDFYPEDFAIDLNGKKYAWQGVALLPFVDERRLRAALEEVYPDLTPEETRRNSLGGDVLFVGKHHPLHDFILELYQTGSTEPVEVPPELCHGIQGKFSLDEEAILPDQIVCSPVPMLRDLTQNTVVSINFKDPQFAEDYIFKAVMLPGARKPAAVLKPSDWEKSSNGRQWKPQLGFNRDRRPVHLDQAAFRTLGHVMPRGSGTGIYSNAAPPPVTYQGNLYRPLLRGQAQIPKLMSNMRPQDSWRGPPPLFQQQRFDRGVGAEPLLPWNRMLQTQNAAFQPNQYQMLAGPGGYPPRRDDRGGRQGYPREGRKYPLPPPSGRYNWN
# UniProt Q9H2V7: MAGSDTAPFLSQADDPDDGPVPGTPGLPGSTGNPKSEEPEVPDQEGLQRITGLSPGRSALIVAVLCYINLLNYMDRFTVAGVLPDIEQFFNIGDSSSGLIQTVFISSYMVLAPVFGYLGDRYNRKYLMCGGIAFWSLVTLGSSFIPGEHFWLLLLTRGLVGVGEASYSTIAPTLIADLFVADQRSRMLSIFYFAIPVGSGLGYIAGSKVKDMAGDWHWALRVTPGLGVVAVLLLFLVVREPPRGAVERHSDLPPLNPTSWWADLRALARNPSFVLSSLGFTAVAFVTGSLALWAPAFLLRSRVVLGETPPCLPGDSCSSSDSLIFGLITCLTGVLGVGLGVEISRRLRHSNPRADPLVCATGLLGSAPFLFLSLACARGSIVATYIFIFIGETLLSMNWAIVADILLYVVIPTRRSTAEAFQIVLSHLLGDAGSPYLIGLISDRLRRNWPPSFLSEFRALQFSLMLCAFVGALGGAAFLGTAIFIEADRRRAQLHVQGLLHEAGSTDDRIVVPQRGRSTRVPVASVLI
# ± gives the standard deviation of the averaged measurements. Only a part is listed here, and it is no random draw.
# Compound: Nc1ncnc2c1ncn2[C@@H]1O[C@H](COP(=O)(O)OP(=O)(O)OP(=O)(O)O)[C@@H](O)[C@H]1O [adenosine triphosphate]
# Experiment: NP40-soluble protein abundance relative to vehicle (solubility fold change) (ratio); higher = more soluble protein in presence of ATP
# Method in brief: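 Across three independent experiments, values are fold changes against the detergent-processed vehicle for each replicate, based on vsn-normalised intensities. The samples were Jurkat crude lysate treated with eight concentrations (0.1 to 10 mM) for 10 min at room temperature and then 3 min at 37 °C. Lysate was solubilised with 0.8% NP40 and benzonase, ultracentrifuged, and the supernatant analysed by TMT-labelled LC-MS/MS.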
Target,NP40-soluble protein abundance (concentration: 1mM),NP40-soluble protein abundance (concentration: 2mM),NP40-soluble protein abundance (concentration: 4mM),NP40-soluble protein abundance (concentration: 6mM),NP40-soluble protein abundance (concentration: 8mM),NP40-soluble protein abundance (concentration: 10mM)
UniProt Q9GZR5,0.959 ± 0.064,0.93 ± 0.026,0.91 ± 0.022,0.976 ± 0.079,0.911 ± 0.03,0.942 ± 0.014
EML4 (UniProt Q9HC35),0.939 ± 0.026,0.954 ± 0.028,0.942 ± 0.015,0.952 ± 0.016,0.973 ± 0.016,0.972 ± 0.014
UniProt Q9H7E2-3,0.927 ± 0.071,0.98 ± 0.092,1.03 ± 0.093,1.1 ± 0.05,1.1 ± 0.057,1.23 ± 0.066
UniProt Q9H832 and related entries,0.927 ± 0.038,0.952 ± 0.025,0.93 ± 0.032,0.915 ± 0.018,0.899 ± 0.025,0.913 ± 0.025
UniProt Q9H3H3-2|Q9H3H3-3,0.975 ± 0.099,0.957 ± 0.095,0.999 ± 0.076,0.884 ± 0.12,0.961 ± 0.11,0.965 ± 0.096
CHMP4B (UniProt Q9H444),1.04 ± 0.16,1.02 ± 0.099,1.02 ± 0.13,1.1 ± 0.11,1.03 ± 0.053,0.951 ± 0.17
UniProt Q9H098 and related entries,0.891 ± 0.097,0.905 ± 0.13,0.971 ± 0.084,0.939 ± 0.083,0.837 ± 0.013,0.853 ± 0.2
UniProt Q9C0H2 and related entries,0.915 ± 0.057,0.879 ± 0.084,0.892 ± 0.076,0.953 ± 0.027,0.963 ± 0.051,0.87 ± 0.1
UniProt Q9HC38-2|F6TLX2,0.949 ± 0.026,0.924 ± 0.07,0.9623 ± 0.0052,0.973 ± 0.058,0.95 ± 0.055,0.914 ± 0.048
GLIPR2 (UniProt Q9H4G4),0.9756 ± 0.0029,0.976 ± 0.019,0.926 ± 0.021,0.998 ± 0.013,0.952 ± 0.032,0.937 ± 0.028
UniProt Q9GZT3,0.955 ± 0.073,0.934 ± 0.038,0.915 ± 0.031,0.927 ± 0.05,0.9211 ± 0.0055,0.872 ± 0.088
UniProt Q9GZY8-2|Q9GZY8-5,0.952 ± 0.13,0.922 ± 0.11,0.98 ± 0.16,0.919 ± 0.17,0.968 ± 0.24,0.992 ± 0.23
UniProt Q9H0F7 and related entries,1.08 ± 0.13,1.02 ± 0.095,1.1 ± 0.067,0.919 ± 0.1,1.07 ± 0.05,1.06 ± 0.17
UniProt Q9H9G7,1.09 ± 0.15,1.16 ± 0.058,1.11 ± 0.14,1.12 ± 0.039,1.17 ± 0.059,1.13 ± 0.042
UniProt Q9HCM1,0.92 ± 0.12,0.938 ± 0.12,0.998 ± 0.16,1.05 ± 0.21,0.972 ± 0.17,0.935 ± 0.077
UniProt Q9H4X1 and related entries,0.952 ± 0.07,0.95 ± 0.074,0.973 ± 0.092,1.06 ± 0.16,0.922 ± 0.095,0.887 ± 0.13
PARP12 (UniProt Q9H0J9),1.06 ± 0.084,1.08 ± 0.075,1.07 ± 0.071,1.03 ± 0.11,1.06 ± 0.016,1.04 ± 0.036
XRN2 (UniProt Q9H0D6),0.984 ± 0.02,0.983 ± 0.012,0.9861 ± 0.0086,0.999 ± 0.019,1.016 ± 0.0053,1.01 ± 0.016
MRPS30 (UniProt Q9NP92),1.04 ± 0.026,0.983 ± 0.13,0.914 ± 0.086,0.946 ± 0.23,0.928 ± 0.19,0.879 ± 0.2
UniProt Q9H2V7 and related entries,1.07 ± 0.1,1.08 ± 0.057,1.08 ± 0.094,0.993 ± 0.13,0.992 ± 0.014,1.15 ± 0.043
WDR12 (UniProt Q9GZL7),1.03 ± 0.11,1 ± 0.08,0.985 ± 0.061,0.934 ± 0.12,1 ± 0.059,0.987 ± 0.024

# Full records from above.
# WDR12 (UniProt Q9GZL7) is listed as NP40-soluble protein abundance (concentration: 1mM): 1.03 ± 0.11; NP40-soluble protein abundance (concentration: 2mM): 1 ± 0.08; NP40-soluble protein abundance (concentration: 4mM): 0.985 ± 0.061; NP40-soluble protein abundance (concentration: 6mM): 0.934 ± 0.12; NP40-soluble protein abundance (concentration: 8mM): 1 ± 0.059; NP40-soluble protein abundance (concentration: 10mM): 0.987 ± 0.024
# UniProt Q9H3H3-2|Q9H3H3-3 is listed as NP40-soluble protein abundance (concentration: 1mM): 0.975 ± 0.099; NP40-soluble protein abundance (concentration: 2mM): 0.957 ± 0.095; NP40-soluble protein abundance (concentration: 4mM): 0.999 ± 0.076; NP40-soluble protein abundance (concentration: 6mM): 0.884 ± 0.12; NP40-soluble protein abundance (concentration: 8mM): 0.961 ± 0.11; NP40-soluble protein abundance (concentration: 10mM): 0.965 ± 0.096
